Laboratory results as given in publication doi:10.1101/2024.03.12.584565.
Positions count from the first letter of the chain named. Results are given in words; binding and its absence hold for the method and conditions named. In cells and extracts the contact can be indirect. Some entries that bind do so weakly or less than the wild type. Where a sequence is shown, tags or fusion partners need not be part of it.

Tests used:
[1] = molecular target: T1, Wild type Pds5b-Flag in HeLaK cells (human) (UniProt Q9NTI5); experiment: co-IP
T1 sequence: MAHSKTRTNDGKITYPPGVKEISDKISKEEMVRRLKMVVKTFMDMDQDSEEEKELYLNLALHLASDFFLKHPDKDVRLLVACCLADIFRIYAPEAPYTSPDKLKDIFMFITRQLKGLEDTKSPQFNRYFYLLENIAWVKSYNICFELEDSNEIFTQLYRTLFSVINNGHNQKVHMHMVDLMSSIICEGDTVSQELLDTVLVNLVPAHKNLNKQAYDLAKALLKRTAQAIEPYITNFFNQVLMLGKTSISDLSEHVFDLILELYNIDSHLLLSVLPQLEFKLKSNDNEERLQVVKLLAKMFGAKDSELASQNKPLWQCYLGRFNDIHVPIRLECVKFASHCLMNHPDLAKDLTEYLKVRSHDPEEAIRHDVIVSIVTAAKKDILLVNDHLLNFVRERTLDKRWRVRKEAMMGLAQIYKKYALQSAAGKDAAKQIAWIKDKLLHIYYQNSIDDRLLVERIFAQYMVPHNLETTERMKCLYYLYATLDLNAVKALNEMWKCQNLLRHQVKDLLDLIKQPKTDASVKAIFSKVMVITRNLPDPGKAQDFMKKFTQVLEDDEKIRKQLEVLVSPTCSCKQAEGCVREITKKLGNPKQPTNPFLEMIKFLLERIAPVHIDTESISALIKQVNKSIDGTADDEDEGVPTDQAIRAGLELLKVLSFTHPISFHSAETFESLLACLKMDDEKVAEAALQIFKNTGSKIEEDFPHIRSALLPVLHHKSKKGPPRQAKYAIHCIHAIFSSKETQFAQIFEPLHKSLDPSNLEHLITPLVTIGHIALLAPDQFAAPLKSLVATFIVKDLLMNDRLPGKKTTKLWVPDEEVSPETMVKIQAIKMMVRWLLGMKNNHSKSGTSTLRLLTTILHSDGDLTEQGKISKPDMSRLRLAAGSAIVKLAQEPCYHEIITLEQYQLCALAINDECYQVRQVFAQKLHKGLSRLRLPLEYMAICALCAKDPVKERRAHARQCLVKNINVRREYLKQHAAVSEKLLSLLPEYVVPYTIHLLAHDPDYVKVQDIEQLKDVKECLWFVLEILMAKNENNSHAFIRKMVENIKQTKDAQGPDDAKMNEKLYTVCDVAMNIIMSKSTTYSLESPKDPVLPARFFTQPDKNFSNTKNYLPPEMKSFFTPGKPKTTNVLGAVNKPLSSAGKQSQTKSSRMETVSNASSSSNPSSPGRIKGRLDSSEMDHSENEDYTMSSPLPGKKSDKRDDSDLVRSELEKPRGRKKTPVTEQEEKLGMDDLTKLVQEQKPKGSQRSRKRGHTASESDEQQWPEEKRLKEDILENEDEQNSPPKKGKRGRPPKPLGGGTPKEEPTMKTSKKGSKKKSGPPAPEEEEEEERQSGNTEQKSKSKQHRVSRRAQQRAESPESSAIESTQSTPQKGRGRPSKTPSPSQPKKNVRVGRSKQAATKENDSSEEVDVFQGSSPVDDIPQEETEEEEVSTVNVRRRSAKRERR

[2] = molecular target: T2, Pds5b-6D-Flag in HeLaK cells (human) (UniProt Q9NTI5); experiment: co-IP
T2 sequence: T1 sequence with S1161D, S1162D, S1166D, S1177D, S1182D, S1209D

B1: endogenous Wapl (protein, UniProt Q7Z5K2 1-1190)
chain: MTSRFGKTYSRKGGNGSSKFDEVFSNKRTTLSTKWGETTFMAKLGQKRPNFKPDIQEIPKKPKVEEESTGDPFGFDSDDESLPVSSKNLAQVKCSSYSESSEAAQLEEVTSVLEANSKISHVVVEDTVVSDKCFPLEDTLLGKEKSTNRIVEDDASISSCNKLITSDKVENFHEEHEKNSHHIHKNADDSTKKPNAETTVASEIKETNDTWNSQFGKRPESPSEISPIKGSVRTGLFEWDNDFEDIRSEDCILSLDSDPLLEMKDDDFKNRLENLNEAIEEDIVQSVLRPTNCRTYCRANKTKSSQGASNFDKLMDGTSQALAKANSESSKDGLNQAKKGGVSCGTSFRGTVGRTRDYTVLHPSCLSVCNVTIQDTMERSMDEFTASTPADLGEAGRLRKKADIATSKTTTRFRPSNTKSKKDVKLEFFGFEDHETGGDEGGSGSSNYKIKYFGFDDLSESEDDEDDDCQVERKTSKKRTKTAPSPSLQPPPESNDNSQDSQSGTNNAENLDFTEDLPGVPESVKKPINKQGDKSKENTRKIFSGPKRSPTKAVYNARHWNHPDSEELPGPPVVKPQSVTVRLSSKEPNQKDDGVFKAPAPPSKVIKTVTIPTQPYQDIVTALKCRREDKELYTVVQHVKHFNDVVEFGENQEFTDDIEYLLSGLKSTQPLNTRCLSVISLATKCAMPSFRMHLRAHGMVAMVFKTLDDSQHHQNLSLCTAALMYILSRDRLNMDLDRASLDLMIRLLELEQDASSAKLLNEKDMNKIKEKIRRLCETVHNKHLDLENITTGHLAMETLLSLTSKRAGDWFKEELRLLGGLDHIVDKVKECVDHLSRDEDEEKLVASLWGAERCLRVLESVTVHNPENQSYLIAYKDSQLIVSSAKALQHCEELIQQYNRAEDSICLADSKPLPHQNVTNHVGKAVEDCMRAIIGVLLNLTNDNEWGSTKTGEQDGLIGTALNCVLQVPKYLPQEQRFDIRVLGLGLLINLVEYSARNRHCLVNMETSCSFDSSICSGEGDDSLRIGGQVHAVQALVQLFLERERAAQLAESKTDELIKDAPTTQHDKSGEWQETSGEIQWVSTEKTDGTEEKHKKEEEDEELDLNKALQHAGKHMEDCIVASYTALLLGCLCQESPINVTTVREYLPEGDFSIMTEMLKKFLSFMNLTCAVGTTGQKSISRVIEYLEHC
In the case of B1, the binding [1] is reported as “binds” and the binding [2] is reported as “binds”.
